Results are given in words; binding and its absence hold for the method and conditions named. In cells and extracts the contact can be indirect. A result given as binding can be weak or reduced; the word gives no strength. Tags and fused reporters may be left off the sequences shown.
Target: T1, FLAG-LRCH4 (human) (UniProt O75427)
T1 sequence: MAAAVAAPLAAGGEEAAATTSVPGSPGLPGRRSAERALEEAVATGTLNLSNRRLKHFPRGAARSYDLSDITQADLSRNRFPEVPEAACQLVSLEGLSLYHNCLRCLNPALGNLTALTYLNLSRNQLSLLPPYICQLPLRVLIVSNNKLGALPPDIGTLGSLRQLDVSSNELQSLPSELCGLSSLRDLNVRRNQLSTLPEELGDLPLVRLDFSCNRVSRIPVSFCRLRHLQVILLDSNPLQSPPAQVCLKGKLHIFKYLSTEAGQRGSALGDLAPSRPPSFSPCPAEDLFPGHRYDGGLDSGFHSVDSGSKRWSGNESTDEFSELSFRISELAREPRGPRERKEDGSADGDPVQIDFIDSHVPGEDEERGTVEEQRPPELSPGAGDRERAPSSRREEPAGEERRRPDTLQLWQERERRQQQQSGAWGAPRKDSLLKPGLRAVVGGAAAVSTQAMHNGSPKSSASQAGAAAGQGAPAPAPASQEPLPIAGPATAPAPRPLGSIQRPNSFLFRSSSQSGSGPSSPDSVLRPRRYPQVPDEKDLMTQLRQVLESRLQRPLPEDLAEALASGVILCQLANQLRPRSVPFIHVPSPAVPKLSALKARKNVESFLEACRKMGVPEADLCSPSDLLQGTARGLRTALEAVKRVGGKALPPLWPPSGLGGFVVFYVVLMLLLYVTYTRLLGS
Assay: co-IP

binding: binds
Substance: mCherry-tagged DOCK7 fragment (DHR2 domain) (human) (domain or fragment)
